The list shows a part of the results.
What was measured:
Assay in all cases: log2 fold change, soluble protein after heating vs DMSO (PISA); higher = thermal stabilisation; K562 cells, 10 uM, 30 min; active = over 0.2 and 3.5 SD of the protein, either way, in both replicates (recomputed)
[1] = compound: CS(=O)(=O)c1ccc(-c2cnc(N)c(C(=O)Nc3ccccc3)n2)cc1
Outline: (§1)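 Soluble protein was quantified by TMTpro 16plex LC-MS/MS after channel sums were equalised. It was obtained as the supernatant after 21,000xg for 90 min from pooled aliquots of K562 cells (2×10^6 cells/mL, 10 μM compound, 30 min) heated for 3 min across 48°C-58°C and extracted in PBS with 0.5% NP-40 at 4°C. Thermal stability values are relative to control samples and come from duplicates. They are given as log2 fold changes.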

Sequences of proteins named here, by UniProt entry; tags and fusion partners are left off. A change or cut given only in a name is not applied to a line headed by its entry.
UniProt A2RU67: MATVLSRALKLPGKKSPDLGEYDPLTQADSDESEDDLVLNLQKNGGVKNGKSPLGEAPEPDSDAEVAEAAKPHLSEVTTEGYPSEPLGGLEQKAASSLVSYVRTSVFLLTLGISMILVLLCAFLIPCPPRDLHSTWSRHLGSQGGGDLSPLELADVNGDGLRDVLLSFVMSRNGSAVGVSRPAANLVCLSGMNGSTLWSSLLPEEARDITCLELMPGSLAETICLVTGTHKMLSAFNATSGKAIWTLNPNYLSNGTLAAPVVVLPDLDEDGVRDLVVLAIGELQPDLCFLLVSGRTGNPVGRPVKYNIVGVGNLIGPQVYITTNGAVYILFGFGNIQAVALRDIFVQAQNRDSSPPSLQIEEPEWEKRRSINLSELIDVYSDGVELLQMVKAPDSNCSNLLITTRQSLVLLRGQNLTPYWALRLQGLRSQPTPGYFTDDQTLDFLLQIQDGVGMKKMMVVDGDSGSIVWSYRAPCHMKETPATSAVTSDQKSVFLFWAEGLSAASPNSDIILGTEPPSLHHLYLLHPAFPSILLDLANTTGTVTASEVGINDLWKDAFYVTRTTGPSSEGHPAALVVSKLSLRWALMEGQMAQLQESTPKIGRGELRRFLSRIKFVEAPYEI
UniProt Q53R41: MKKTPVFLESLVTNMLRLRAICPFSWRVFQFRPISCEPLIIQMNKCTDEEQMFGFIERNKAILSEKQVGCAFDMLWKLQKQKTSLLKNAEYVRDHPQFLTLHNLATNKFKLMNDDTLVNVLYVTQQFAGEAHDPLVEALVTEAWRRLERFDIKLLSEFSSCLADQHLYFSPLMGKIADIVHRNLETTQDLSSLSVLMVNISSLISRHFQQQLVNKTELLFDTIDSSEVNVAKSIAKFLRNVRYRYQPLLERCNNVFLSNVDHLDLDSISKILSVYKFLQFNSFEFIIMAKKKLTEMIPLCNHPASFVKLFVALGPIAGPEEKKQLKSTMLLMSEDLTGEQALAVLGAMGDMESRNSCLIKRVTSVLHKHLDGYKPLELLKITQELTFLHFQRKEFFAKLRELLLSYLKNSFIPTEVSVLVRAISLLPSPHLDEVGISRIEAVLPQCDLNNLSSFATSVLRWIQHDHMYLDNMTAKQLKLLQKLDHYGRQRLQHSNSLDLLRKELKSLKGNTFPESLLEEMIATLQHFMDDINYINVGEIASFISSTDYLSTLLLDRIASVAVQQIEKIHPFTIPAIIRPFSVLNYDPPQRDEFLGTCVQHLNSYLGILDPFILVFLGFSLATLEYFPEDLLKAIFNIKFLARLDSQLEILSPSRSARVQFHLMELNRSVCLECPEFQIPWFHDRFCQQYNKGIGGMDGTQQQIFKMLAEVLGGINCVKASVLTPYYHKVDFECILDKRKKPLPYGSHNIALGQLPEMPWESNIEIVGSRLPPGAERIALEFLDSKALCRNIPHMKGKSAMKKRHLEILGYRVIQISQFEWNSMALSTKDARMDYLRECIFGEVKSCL
UniProt O14526: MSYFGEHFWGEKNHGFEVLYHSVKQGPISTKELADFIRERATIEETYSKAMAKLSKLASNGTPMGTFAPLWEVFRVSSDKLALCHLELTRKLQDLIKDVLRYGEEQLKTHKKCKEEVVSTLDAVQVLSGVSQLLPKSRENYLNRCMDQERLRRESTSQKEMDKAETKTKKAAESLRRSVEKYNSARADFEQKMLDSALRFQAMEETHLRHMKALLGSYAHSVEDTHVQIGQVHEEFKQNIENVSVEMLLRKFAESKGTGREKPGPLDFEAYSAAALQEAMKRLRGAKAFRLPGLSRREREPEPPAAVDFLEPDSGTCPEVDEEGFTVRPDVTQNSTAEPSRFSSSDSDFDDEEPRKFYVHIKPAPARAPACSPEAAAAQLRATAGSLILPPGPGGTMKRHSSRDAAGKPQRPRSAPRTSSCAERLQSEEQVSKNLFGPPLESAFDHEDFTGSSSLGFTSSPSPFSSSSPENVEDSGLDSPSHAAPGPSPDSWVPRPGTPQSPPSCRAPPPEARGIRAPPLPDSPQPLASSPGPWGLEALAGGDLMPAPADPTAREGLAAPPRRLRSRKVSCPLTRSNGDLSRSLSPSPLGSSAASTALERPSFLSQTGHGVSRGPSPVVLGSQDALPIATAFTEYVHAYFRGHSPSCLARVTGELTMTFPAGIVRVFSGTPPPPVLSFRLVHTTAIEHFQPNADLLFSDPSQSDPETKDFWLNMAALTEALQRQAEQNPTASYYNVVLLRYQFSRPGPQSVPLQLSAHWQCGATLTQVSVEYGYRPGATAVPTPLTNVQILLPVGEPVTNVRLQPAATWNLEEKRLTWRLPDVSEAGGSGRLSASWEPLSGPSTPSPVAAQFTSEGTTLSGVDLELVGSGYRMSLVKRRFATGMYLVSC
UniProt Q9Y324: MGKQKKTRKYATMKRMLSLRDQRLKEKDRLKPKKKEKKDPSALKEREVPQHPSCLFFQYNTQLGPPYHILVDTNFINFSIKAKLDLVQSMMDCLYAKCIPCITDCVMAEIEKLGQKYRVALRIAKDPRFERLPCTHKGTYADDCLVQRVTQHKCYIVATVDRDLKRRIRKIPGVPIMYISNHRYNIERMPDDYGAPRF
UniProt Q02790: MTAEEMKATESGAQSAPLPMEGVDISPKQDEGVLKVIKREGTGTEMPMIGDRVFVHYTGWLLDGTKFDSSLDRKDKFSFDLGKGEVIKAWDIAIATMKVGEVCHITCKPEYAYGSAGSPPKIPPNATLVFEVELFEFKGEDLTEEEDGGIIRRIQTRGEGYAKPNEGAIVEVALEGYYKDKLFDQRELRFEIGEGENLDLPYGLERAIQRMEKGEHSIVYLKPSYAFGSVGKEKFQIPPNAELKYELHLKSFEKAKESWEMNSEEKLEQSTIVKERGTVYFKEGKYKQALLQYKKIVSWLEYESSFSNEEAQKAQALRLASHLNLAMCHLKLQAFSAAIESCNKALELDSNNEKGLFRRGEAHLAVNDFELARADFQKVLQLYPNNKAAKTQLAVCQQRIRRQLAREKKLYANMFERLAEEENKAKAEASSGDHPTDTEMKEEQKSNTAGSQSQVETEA
UniProt Q9Y680: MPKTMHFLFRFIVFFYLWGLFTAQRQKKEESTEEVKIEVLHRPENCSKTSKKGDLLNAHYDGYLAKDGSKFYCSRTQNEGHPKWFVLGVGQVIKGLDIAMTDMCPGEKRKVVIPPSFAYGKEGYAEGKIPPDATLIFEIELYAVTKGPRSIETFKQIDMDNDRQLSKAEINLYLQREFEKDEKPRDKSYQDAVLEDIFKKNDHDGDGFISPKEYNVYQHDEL
UniProt Q86UX7, whole entry, looked up: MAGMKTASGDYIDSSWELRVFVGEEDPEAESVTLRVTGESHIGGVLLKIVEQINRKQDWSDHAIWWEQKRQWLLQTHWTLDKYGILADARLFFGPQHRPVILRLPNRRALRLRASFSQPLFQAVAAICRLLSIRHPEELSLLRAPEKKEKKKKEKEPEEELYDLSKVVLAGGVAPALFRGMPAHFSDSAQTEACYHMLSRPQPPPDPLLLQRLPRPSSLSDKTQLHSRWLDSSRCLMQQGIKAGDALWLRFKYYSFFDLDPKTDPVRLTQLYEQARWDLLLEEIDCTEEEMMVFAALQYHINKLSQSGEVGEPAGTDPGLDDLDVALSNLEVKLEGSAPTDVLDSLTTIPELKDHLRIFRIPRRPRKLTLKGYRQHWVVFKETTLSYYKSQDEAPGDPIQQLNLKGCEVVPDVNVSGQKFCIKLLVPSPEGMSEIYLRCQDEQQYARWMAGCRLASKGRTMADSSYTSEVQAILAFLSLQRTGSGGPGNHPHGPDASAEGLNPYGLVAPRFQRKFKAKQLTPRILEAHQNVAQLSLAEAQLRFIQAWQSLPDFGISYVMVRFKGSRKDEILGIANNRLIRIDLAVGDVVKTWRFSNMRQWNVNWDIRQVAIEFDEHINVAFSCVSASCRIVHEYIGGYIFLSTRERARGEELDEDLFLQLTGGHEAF
UniProt Q9NVI1: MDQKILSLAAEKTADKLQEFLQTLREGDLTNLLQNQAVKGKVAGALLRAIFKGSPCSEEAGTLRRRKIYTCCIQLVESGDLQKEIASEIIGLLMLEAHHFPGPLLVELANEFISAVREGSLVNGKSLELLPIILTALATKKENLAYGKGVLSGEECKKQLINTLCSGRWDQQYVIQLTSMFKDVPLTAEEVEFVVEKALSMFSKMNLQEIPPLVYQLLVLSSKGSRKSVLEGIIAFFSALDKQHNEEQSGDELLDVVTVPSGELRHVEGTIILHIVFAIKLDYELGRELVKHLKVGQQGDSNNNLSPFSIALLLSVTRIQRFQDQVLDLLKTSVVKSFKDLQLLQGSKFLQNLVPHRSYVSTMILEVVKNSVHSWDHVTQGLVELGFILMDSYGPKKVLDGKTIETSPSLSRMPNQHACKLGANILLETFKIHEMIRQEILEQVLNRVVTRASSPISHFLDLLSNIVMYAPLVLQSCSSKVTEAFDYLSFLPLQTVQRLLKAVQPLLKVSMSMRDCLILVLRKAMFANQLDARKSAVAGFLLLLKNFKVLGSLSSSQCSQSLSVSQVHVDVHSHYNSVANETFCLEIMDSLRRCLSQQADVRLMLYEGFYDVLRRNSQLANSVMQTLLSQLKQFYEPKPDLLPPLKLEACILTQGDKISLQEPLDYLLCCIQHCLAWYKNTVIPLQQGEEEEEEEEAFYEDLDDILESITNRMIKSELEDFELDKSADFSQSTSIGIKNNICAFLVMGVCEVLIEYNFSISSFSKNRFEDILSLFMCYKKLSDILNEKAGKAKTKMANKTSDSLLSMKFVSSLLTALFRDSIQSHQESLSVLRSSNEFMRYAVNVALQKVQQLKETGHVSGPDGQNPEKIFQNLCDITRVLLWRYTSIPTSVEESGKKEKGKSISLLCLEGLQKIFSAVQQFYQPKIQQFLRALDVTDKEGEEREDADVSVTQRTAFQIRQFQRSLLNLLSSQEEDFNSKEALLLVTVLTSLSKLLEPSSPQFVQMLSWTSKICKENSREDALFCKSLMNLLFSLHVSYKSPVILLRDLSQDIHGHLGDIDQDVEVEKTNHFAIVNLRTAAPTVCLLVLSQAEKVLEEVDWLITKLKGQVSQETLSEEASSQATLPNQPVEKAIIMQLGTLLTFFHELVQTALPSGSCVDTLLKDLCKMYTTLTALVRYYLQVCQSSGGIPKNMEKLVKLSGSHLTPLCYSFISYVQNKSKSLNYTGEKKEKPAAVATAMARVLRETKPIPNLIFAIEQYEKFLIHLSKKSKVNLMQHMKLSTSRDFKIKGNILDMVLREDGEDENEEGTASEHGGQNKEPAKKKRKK
UniProt Q13642: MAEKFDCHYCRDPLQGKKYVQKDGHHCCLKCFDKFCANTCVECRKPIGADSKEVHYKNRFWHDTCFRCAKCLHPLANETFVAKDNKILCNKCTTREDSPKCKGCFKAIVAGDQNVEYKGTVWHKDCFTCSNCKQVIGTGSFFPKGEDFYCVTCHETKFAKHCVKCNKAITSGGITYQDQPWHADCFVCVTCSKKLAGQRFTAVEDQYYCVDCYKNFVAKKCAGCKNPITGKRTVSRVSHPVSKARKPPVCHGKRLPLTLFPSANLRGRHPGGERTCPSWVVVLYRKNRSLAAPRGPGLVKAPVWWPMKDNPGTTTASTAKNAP
UniProt Q9HCM7, whole entry, looked up: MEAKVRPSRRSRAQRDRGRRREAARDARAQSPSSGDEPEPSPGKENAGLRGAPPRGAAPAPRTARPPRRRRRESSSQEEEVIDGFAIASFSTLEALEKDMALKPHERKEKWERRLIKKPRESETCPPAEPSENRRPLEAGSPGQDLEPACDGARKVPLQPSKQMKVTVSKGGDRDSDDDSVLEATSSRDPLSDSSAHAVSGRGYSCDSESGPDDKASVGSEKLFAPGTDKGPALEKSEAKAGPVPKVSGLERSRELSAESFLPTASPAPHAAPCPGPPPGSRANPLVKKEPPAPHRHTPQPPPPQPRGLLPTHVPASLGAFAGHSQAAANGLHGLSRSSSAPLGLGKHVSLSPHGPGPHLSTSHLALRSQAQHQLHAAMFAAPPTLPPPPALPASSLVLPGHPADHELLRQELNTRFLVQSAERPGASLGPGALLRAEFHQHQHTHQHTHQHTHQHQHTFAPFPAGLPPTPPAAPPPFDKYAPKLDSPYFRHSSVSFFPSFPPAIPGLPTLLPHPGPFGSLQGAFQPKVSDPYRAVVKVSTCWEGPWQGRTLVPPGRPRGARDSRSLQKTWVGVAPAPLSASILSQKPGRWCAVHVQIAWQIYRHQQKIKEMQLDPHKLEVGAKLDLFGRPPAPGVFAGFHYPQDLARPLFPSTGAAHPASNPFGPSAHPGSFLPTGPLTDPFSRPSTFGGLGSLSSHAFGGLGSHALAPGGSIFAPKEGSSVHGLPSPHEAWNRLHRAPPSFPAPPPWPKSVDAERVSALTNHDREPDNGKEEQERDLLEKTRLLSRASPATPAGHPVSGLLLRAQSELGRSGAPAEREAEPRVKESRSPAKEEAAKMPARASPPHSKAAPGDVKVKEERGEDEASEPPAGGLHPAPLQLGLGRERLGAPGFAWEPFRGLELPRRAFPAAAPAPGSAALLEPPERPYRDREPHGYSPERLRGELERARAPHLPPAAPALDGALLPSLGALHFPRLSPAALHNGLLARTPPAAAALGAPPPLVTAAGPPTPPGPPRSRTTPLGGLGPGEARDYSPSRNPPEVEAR

crizotinib = compound: C[C@@H](Oc1cc(-c2cnn(C3CCNCC3)c2)cnc1N)c1c(Cl)ccc(F)c1Cl [crizotinib]
Outline: as §1

[2] = compound: C[C@H](C1=CC=C(C=C1)C(=O)NC2=C3C=CNC3=NC=C2)N
Outline: as §1

tozasertib = compound: Cc1cc(Nc2cc(N3CCN(C)CC3)nc(Sc3ccc(NC(=O)C4CC4)cc3)n2)n[nH]1 [tozasertib]
Outline: as §1

doramapimod = compound: Cc1ccc(-n2nc(C(C)(C)C)cc2NC(=O)Nc2ccc(OCCN3CCOCC3)c3ccccc23)cc1 [doramapimod]
Outline: as §1

ispinesib = compound: Cc1ccc(C(=O)N(CCCN)[C@@H](c2nc3cc(Cl)ccc3c(=O)n2Cc2ccccc2)C(C)C)cc1 [ispinesib]
Outline: as §1

[3] = compound: C[C@@H]1COCCN1C2=NC(=NC(=C2)C3(CC3)S(=O)(=O)C)C4=C5C=CNC5=CC=C4
Outline: as §1

gandotinib = compound: Cc1cc(Nc2cc(CN3CCOCC3)c3nc(C)c(Cc4ccc(Cl)cc4F)n3n2)n[nH]1 [gandotinib]
Outline: as §1

[4] = compound: Cc1cc(SCc2sc(-c3ccc(C(F)(F)F)cc3)nc2C)ccc1OCC(=O)O
Outline: as §1

duvelisib = compound: C[C@H](Nc1ncnc2nc[nH]c12)c1cc2cccc(Cl)c2c(=O)n1-c1ccccc1 [duvelisib]
Outline: as §1

Measured: log2 fold change

FAM234B (UniProt A2RU67)
inactive: [1] -0.004 | crizotinib -0.002 | [2] -0.099 | tozasertib -0.026 | doramapimod 0.074 | ispinesib 0.137

FASTKD1 (UniProt Q53R41)
inactive: [1] 0.097 | crizotinib 0.001 | [3] 0.097 | [2] -0.027 | gandotinib -0.284 | [4] 0.12 | doramapimod 0.037 | ispinesib -0.013

FCHO1 (UniProt O14526)
inactive: [1] 0.033 | crizotinib -0.118 | [3] 0.158 | [2] 0.161 | [4] 0.109 | doramapimod -0.009 | ispinesib -0.264

FCF1 (UniProt Q9Y324)
inactive: [1] 0.06 | crizotinib -0.054 | [3] -0.225 | gandotinib 0.155 | [4] 0.103 | doramapimod 0.244 | ispinesib -0.095

FHOD1 (UniProt Q9Y613)
inactive: [1] 0.033 | crizotinib -0.107 | [3] -0.174 | gandotinib 0.105 | [4] 0.085 | doramapimod 0.235 | ispinesib -0.193
active: [2] 0.58

FNBP1L (UniProt Q5T0N5)
inactive: [1] 0.199 | crizotinib -0.031 | [2] -0.039 | duvelisib 0.151 | gandotinib 0.075 | tozasertib -0.084 | [4] 0.011 | doramapimod 0.017 | ispinesib 0.013

FAT3 isoform 1 (UniProt Q8TDW7)
inactive: [1] 0.058 | crizotinib -0.219 | [3] 0.076 | duvelisib -0.125 | [4] -0.092 | doramapimod -0.024 | ispinesib -0.137

FIBP (UniProt O43427)
inactive: [1] 0.022 | crizotinib -0.043 | [3] 0.257 | [2] 0.118 | gandotinib -0.094 | [4] 0.02 | doramapimod -0.048 | ispinesib -0.052

FKBP4 (UniProt Q02790)
inactive: [1] 0.013 | crizotinib -0.008 | [3] 0.042 | [2] -0.068 | gandotinib -0.105 | [4] 0.077 | doramapimod -0.052 | ispinesib -0.017

FKBP7 (UniProt Q9Y680)
inactive: [1] 0.052 | crizotinib 0.094 | [3] 0.003 | [2] 0.114 | gandotinib 0.114 | [4] 0.005 | doramapimod -0.023 | ispinesib 0.044

FERMT3 (UniProt Q86UX7)
inactive: [1] 0.038 | crizotinib -0.091 | [3] 0.02 | [2] -0.04 | gandotinib -0.064 | [4] 0.057 | doramapimod 0.001 | ispinesib -0.04

FBXO42 (UniProt Q6P3S6)
active: crizotinib 0.4
inactive: [1] 0.077 | [3] 0.127 | [2] -0.064 | gandotinib -0.022 | [4] 0.063 | doramapimod 0.01 | ispinesib -0.015

FDPS (UniProt P14324)
inactive: [1] 0.07 | [3] 0.073 | [2] 0.117 | gandotinib -0.091 | [4] 0.222 | doramapimod 0.004
active: crizotinib -0.768 | ispinesib -0.493

FANCI (UniProt Q9NVI1)
inactive: [1] -0.074 | crizotinib -0.138 | [3] 0.139 | [2] 0 | gandotinib -0.14 | [4] 0.038 | doramapimod -0.021 | ispinesib -0.071

FEZ2 isoform 2 (UniProt Q9UHY8)
inactive: [1] -0.02 | crizotinib 0.014 | [2] 0.003 | duvelisib 0.052 | gandotinib -0.171 | [4] 0.015 | doramapimod 0.019 | ispinesib -0.132

FASTKD5 (UniProt Q7L8L6)
inactive: [1] 0.096 | [3] 0.104 | [2] 0.347 | duvelisib 0.149 | gandotinib -0.396 | tozasertib 0.089 | [4] 0.319 | ispinesib 0.011

FLNA (UniProt P21333)
inactive: [1] 0.014 | crizotinib -0.078 | [3] -0.01 | [2] 0.04 | gandotinib -0.045 | [4] 0.127 | doramapimod -0.013 | ispinesib -0.025

FHL1 isoform 4 (UniProt Q13642)
inactive: [1] 0 | [3] -0.1 | [2] -0.047 | duvelisib 0.237 | tozasertib -0.01 | [4] -0.162

FBH1 isoform 2 (UniProt Q8NFZ0)
inactive: [1] -0.088 | crizotinib -0.027 | [3] -0.03 | gandotinib 0.067 | tozasertib -0.08 | doramapimod -0.018 | ispinesib -0.074

FANCD2 isoform 1 (UniProt Q9BXW9)
inactive: [1] -0.056 | crizotinib -0.052 | [3] 0.127 | [2] -0.014 | gandotinib -0.135 | [4] 0.034 | doramapimod 0.004 | ispinesib -0.096

FGF17 (UniProt O60258)
inactive: gandotinib 0.429

FBXO44 (UniProt Q9H4M3)
inactive: [1] 0.003 | [2] -0.067 | ispinesib -0.027

Reprinted at random: 2 records from the list
FCHO1 (UniProt O14526)
inactive: [1] 0.033 | crizotinib -0.118 | [3] 0.158 | [2] 0.161 | [4] 0.109 | doramapimod -0.009 | ispinesib -0.264

FBXO42 (UniProt Q6P3S6)
active: crizotinib 0.4
inactive: [1] 0.077 | [3] 0.127 | [2] -0.064 | gandotinib -0.022 | [4] 0.063 | doramapimod 0.01 | ispinesib -0.015

Continuation:

FGFR1OP2 isoform 2 (UniProt Q9NVK5)
inactive: [2] -0.054

FBXO11 isoform 5 (UniProt Q86XK2)
inactive: [1] 0.091 | [3] -0.286 | tozasertib -0.066

FBXL4 (UniProt Q9UKA2)
inactive: [1] -0.242 | [3] 0 | duvelisib -0.052 | gandotinib 0.016 | [4] 0.143

FBRSL1 (UniProt Q9HCM7)
inactive: [3] -0.092 | tozasertib -0.043 | ispinesib -0.165

From the supplement of paper PMC10849652
